# Measurements: the supplement of paper PMC8728848
# The list shows a part of the results.
# Columns and labels:
# Assay in all cases: glycan array binding signal (z-score within array); higher = stronger binding
# Settings in all cases: glycan notation: IUPAC condensed, linker removed
# [1] = system: Neu5Ac(a2-3)[Neu5Ac(a2-6)]GalNAc
# How it was run: (§1)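 Negative Z-scores can be read as non-binding. The Z-score is calculated within each array and then averaged across arrays of one protein sequence at different concentrations or buffers and across linkers. Arrays, 3228 in all, were curated from the Consortium for Functional Glycomics database and kept only where the protein sequence was available.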
# [2] = system: Neu5Ac(a2-6)Gal(b1-3)GlcNAc(b1-3)[Gal(b1-4)GlcNAc(b1-6)]Gal(b1-4)Glc
# How it was run: as §1
# [3] = system: Neu5Ac(a2-6)Gal(b1-4)GlcNAc(b1-2)Man(a1-3)Man(b1-4)GlcNAc(b1-4)GlcNAc
# How it was run: as §1
# [4] = system: Neu5Ac(a2-6)Gal(b1-4)GlcNAc(b1-2)Man(a1-3)[Gal(b1-4)GlcNAc(b1-2)Man(a1-6)]Man(b1-4)GlcNAc(b1-4)GlcNAc
# How it was run: as §1
# [5] = system: Neu5Ac(a2-6)Gal(b1-4)GlcNAc(b1-2)Man(a1-3)[GlcNAc(b1-2)Man(a1-6)]Man(b1-4)GlcNAc(b1-4)GlcNAc
# How it was run: as §1
# [6] = system: Neu5Ac(a2-6)Gal(b1-4)GlcNAc(b1-2)Man(a1-3)[GlcNAc(b1-2)Man(b1-4)GlcNAc(b1-2)Man(a1-6)]Man(b1-4)GlcNAc(b1-4)GlcNAc
# How it was run: as §1
# [7] = system: Neu5Ac(a2-6)Gal(b1-4)GlcNAc(b1-2)Man(a1-3)[Man(a1-6)]Man(b1-4)GlcNAc(b1-4)GlcNAc
# How it was run: as §1
# [8] = system: Neu5Ac(a2-6)Gal(b1-4)GlcNAc(b1-2)Man(a1-3)[Neu5Ac(a2-6)Gal(b1-4)GlcNAc(b1-2)Man(a1-6)]Man(b1-4)GlcNAc(b1-4)GlcNAc
# How it was run: as §1
# [9] = system: Neu5Ac(a2-6)Gal(b1-4)GlcNAc(b1-2)Man(a1-3)[Neu5Ac(a2-6)Gal(b1-4)GlcNAc(b1-2)Man(a1-6)]Man(b1-4)GlcNAc(b1-4)[Fuc(a1-6)]GlcNAc
# How it was run: as §1
# [10] = system: Neu5Ac(a2-6)Gal(b1-4)GlcNAc(b1-2)Man(a1-6)Man(b1-4)GlcNAc(b1-4)GlcNAc
# How it was run: as §1
# [11] = system: Neu5Ac(a2-6)Gal(b1-4)GlcNAc(b1-2)Man(a1-6)[Gal(b1-4)GlcNAc(b1-2)Man(a1-3)]Man(b1-4)GlcNAc(b1-4)GlcNAc
# How it was run: as §1
# [12] = system: Neu5Ac(a2-6)Gal(b1-4)GlcNAc(b1-2)Man(a1-6)[GlcNAc(b1-2)Man(a1-3)]Man(b1-4)GlcNAc(b1-4)GlcNAc
# How it was run: as §1
# [13] = system: Neu5Ac(a2-6)Gal(b1-4)GlcNAc(b1-2)Man(a1-6)[Man(a1-3)]Man(b1-4)GlcNAc(b1-4)GlcNAc
# How it was run: as §1
# [14] = system: Neu5Ac(a2-6)Gal(b1-4)GlcNAc(b1-3)Gal(b1-3)GlcNAc
# How it was run: as §1
# [15] = system: Neu5Ac(a2-6)Gal(b1-4)GlcNAc(b1-3)Gal(b1-4)GlcNAc(b1-3)Gal(b1-4)GlcNAc
# How it was run: as §1
# [16] = system: Neu5Ac(a2-6)Gal(b1-4)GlcNAc(b1-3)Gal(b1-4)GlcNAc
# How it was run: as §1
# [17] = system: Neu5Ac(a2-6)Gal(b1-4)GlcNAc(b1-3)Gal(b1-4)[Fuc(a1-3)]GlcNAc(b1-3)Gal(b1-4)[Fuc(a1-3)]GlcNAc
# How it was run: as §1
# [18] = system: Neu5Ac(a2-6)Gal(b1-4)GlcNAc(b1-3)GalNAc
# How it was run: as §1
# [19] = system: Neu5Ac(a2-6)Gal(b1-4)GlcNAc(b1-3)[Neu5Ac(a2-6)Gal(b1-4)GlcNAc(b1-6)]GalNAc
# How it was run: as §1
# [20] = system: Neu5Ac(a2-6)Gal(b1-4)GlcNAc(b1-6)GalNAc
# How it was run: as §1
# [21] = system: Neu5Ac(a2-6)Gal(b1-4)GlcNAc(b1-6)[Gal(b1-3)GlcNAc(b1-3)]Gal(b1-4)Glc
# How it was run: as §1
# [22] = system: Neu5Ac(a2-6)Gal(b1-4)GlcNAc6S
# How it was run: as §1
# [23] = system: Neu5Ac(a2-6)Gal(b1-4)GlcNAc
# How it was run: as §1
# Neu5Ac(a2-6)Gal(b1-4)Glc = system: Neu5Ac(a2-6)Gal(b1-4)Glc
# How it was run: as §1
# [24] = system: Neu5Ac(a2-6)GalNAc(b1-4)GlcNAc6S
# How it was run: as §1
# [25] = system: Neu5Ac(a2-6)GalNAc(b1-4)GlcNAc
# How it was run: as §1
# Neu5Ac(a2-6)GalNAc = system: Neu5Ac(a2-6)GalNAc
# How it was run: as §1
# Neu5Ac(a2-6)Gal = system: Neu5Ac(a2-6)Gal
# How it was run: as §1
# [26] = system: Neu5Ac(a2-6)GlcNAc(b1-4)GlcNAc(b1-4)GlcNAc
# How it was run: as §1
# [27] = system: Neu5Ac(a2-6)GlcNAc(b1-4)GlcNAc
# How it was run: as §1
# [28] = system: Neu5Ac(a2-8)Neu5Ac(a2-3)Gal(b1-3)GalNAc(b1-4)[Neu5Ac(a2-8)Neu5Ac(a2-3)]Gal(b1-4)Glc
# How it was run: as §1
# [29] = system: Neu5Ac(a2-8)Neu5Ac(a2-3)Gal(b1-4)Glc
# How it was run: as §1
# [30] = system: Neu5Ac(a2-8)Neu5Ac(a2-3)[Gal(b1-3)GalNAc(b1-4)]Gal(b1-4)Glc
# How it was run: as §1
# [31] = system: Neu5Ac(a2-8)Neu5Ac(a2-3)[GalNAc(b1-4)]Gal(b1-4)Glc
# How it was run: as §1
# [32] = system: Neu5Ac(a2-8)Neu5Ac(a2-8)Neu5Ac(a2-3)Gal(b1-4)Glc
# How it was run: as §1
# [33] = system: Neu5Ac(a2-8)Neu5Ac(a2-8)Neu5Ac(a2-3)[GalNAc(b1-4)]Gal(b1-4)Glc
# How it was run: as §1
# [34] = system: Neu5Ac(a2-8)Neu5Ac(a2-8)Neu5Ac(a2-8)Neu5Ac(a2-3)[GalNAc(b1-4)]Gal(b1-4)Glc
# How it was run: as §1
# [35] = system: Neu5Ac(a2-8)Neu5Ac(a2-8)Neu5Ac
# How it was run: as §1
# Neu5Ac(a2-8)Neu5Ac = system: Neu5Ac(a2-8)Neu5Ac
# How it was run: as §1
# [36] = system: Neu5Ac(b2-6)Gal(b1-4)GlcNAc
# How it was run: as §1
# Neu5Ac(b2-6)GalNAc = system: Neu5Ac(b2-6)GalNAc
# How it was run: as §1
# [37] = system: Neu5Ac9Ac(a2-3)Gal(b1-3)GlcNAc
# How it was run: as §1
# [38] = system: Neu5Ac9Ac(a2-3)Gal(b1-4)GlcNAc
# How it was run: as §1
# [39] = system: Neu5Ac9Ac(a2-6)Gal(b1-4)GlcNAc
# How it was run: as §1
# [40] = system: Neu5Gc(a2-3)Gal(b1-3)GlcNAc
# How it was run: as §1
# [41] = system: Neu5Gc(a2-3)Gal(b1-3)[Fuc(a1-4)]GlcNAc
# How it was run: as §1
# [42] = system: Neu5Gc(a2-3)Gal(b1-4)GlcNAc
# How it was run: as §1
# Neu5Gc(a2-3)Gal(b1-4)Glc = system: Neu5Gc(a2-3)Gal(b1-4)Glc
# How it was run: as §1
# [43] = system: Neu5Gc(a2-3)Gal(b1-4)[Fuc(a1-3)]GlcNAc
# How it was run: as §1
# [44] = system: Neu5Gc(a2-6)Gal(b1-4)GlcNAc
# How it was run: as §1
# Neu5Gc(a2-6)GalNAc = system: Neu5Gc(a2-6)GalNAc
# How it was run: as §1
# [45] = system: Neu5Gc(b2-6)Gal(b1-4)GlcNAc
# How it was run: as §1
substance,measurement,setting,value
"Wza (Escherichia coli), P0A930",glycan array binding signal (z-score),[1],-0.63
same,glycan array binding signal (z-score),[2],0.652
same,glycan array binding signal (z-score),[3],-0.725
same,glycan array binding signal (z-score),[4],-0.614
same,glycan array binding signal (z-score),[5],-0.492
same,glycan array binding signal (z-score),[6],0.014
same,glycan array binding signal (z-score),[7],0.426
same,glycan array binding signal (z-score),[8],-0.073
same,glycan array binding signal (z-score),[9],-0.578
same,glycan array binding signal (z-score),[10],-0.625
same,glycan array binding signal (z-score),[11],-0.739
same,glycan array binding signal (z-score),[12],-1.02
same,glycan array binding signal (z-score),[13],0.321
same,glycan array binding signal (z-score),[14],-0.325
same,glycan array binding signal (z-score),[15],0.651
same,glycan array binding signal (z-score),[16],-0.426
same,glycan array binding signal (z-score),[17],-1.03
same,glycan array binding signal (z-score),[18],0.761
same,glycan array binding signal (z-score),[19],-0.876
same,glycan array binding signal (z-score),[20],-0.468
same,glycan array binding signal (z-score),[21],0.411
same,glycan array binding signal (z-score),[22],0.193
same,glycan array binding signal (z-score),[23],-0.515
same,glycan array binding signal (z-score),Neu5Ac(a2-6)Gal(b1-4)Glc,-0.149
same,glycan array binding signal (z-score),[24],-0.508
same,glycan array binding signal (z-score),[25],-2.41
same,glycan array binding signal (z-score),Neu5Ac(a2-6)GalNAc,-0.032
same,glycan array binding signal (z-score),Neu5Ac(a2-6)Gal,0.8
same,glycan array binding signal (z-score),[26],-0.523
same,glycan array binding signal (z-score),[27],2.36
same,glycan array binding signal (z-score),[28],-0.952
same,glycan array binding signal (z-score),[29],0.72
same,glycan array binding signal (z-score),[30],-0.37
same,glycan array binding signal (z-score),[31],-0.306
same,glycan array binding signal (z-score),[32],0.179
same,glycan array binding signal (z-score),[33],-1.54
same,glycan array binding signal (z-score),[34],-0.938
same,glycan array binding signal (z-score),[35],-0.6
same,glycan array binding signal (z-score),Neu5Ac(a2-8)Neu5Ac,-0.374
same,glycan array binding signal (z-score),[36],1.45
same,glycan array binding signal (z-score),Neu5Ac(b2-6)GalNAc,-1.62
same,glycan array binding signal (z-score),[37],0.929
same,glycan array binding signal (z-score),[38],-1.32
same,glycan array binding signal (z-score),[39],-1.06
same,glycan array binding signal (z-score),[40],-0.642
same,glycan array binding signal (z-score),[41],-0.122
same,glycan array binding signal (z-score),[42],-0.426
same,glycan array binding signal (z-score),Neu5Gc(a2-3)Gal(b1-4)Glc,-0.672
same,glycan array binding signal (z-score),[43],0.354
same,glycan array binding signal (z-score),[44],-0.914
same,glycan array binding signal (z-score),Neu5Gc(a2-6)GalNAc,-1.36
same,glycan array binding signal (z-score),[45],-0.929

# An excerpt of these results, tab-delimited.
substance	measurement	setting	value
Wza (Escherichia coli), P0A930	glycan array binding signal (z-score)	[4]	-0.614
same	glycan array binding signal (z-score)	[7]	0.426
same	glycan array binding signal (z-score)	[28]	-0.952
same	glycan array binding signal (z-score)	Neu5Ac(b2-6)GalNAc	-1.62
